Test results as given in PubChem BioAssay AID651582 (Sanford-Burnham Center for Chemical Genomics, 2012).
This is one part of the list.

Test: TAG lipid buildup reduction in H9c2 cells – cell-based, uHTS, fluorescence, primary screen (AID 651582)
Conditions: Nile Red lipid (TAG) fluorescence, DAPI nuclei count viability, at 12.5 µM, cells loaded with 200 µM oleic acid

Row | SMILES | DAPI activity (viability loss) [%]
1 | Cc1ccc(C(=O)NCC2(N(C)C)CCCCC2)o1 | 0.455
2 | O=C(NCC1(N2CCCCC2)CCCCC1)c1cncc(Br)c1 | -1.54
3 | O=C(NCC1(N2CCOCC2)CCCCC1)c1cc(F)c(F)cc1Cl | 0.813
4 | CN(C)c1cccc(C(=O)NCC2(N3CCCCC3)CCCCC2)c1 | 16.4
5 | COc1ccc(CN(CCCl)CCCl)cc1Cl | 15.3
6 | CC(C)c1ccc(NC2CCN(C(=O)OC(C)(C)C)CC2)cc1 | 4.87
7 | CC(C)c1ccc(C(=O)NCC2(N3CCOCC3)CCCCC2)cc1 | 8.38
8 | COc1ccc(NC2CCN(C(=O)OC(C)(C)C)CC2)cc1 | -0.395
9 | O=C(NCC1(N2CCOCC2)CCCCC1)c1cc(=O)[nH]c2ccccc12 | 1.91
10 | O=C(NCC1(N2CCCCC2)CCCCC1)c1cccc([N+](=O)[O-])c1 | -4.57
11 | CSc1ccc(C(=O)NCC2(N3CCOCC3)CCCCC2)cc1 | 0.263
12 | N#CC1(Nc2ccccc2)CCN(CCc2ccccc2)CC1 | -0.749
13 | CCOC(=O)N1CCC(Nc2ccc(F)cc2)CC1 | 1.44
14 | O=P1(N(CCCl)CCCl)SCCCS1 | 3.79
15 | CCCCOc1ccc(C(=O)NCC2(N3CCOCC3)CCCCC2)cc1 | 5.62
16 | CCOc1ccc(C)cc1CN(CCCl)CCCl | -2.25
17 | COc1ccc(Cl)cc1C(=O)NCC1(N2CCOCC2)CCCCC1 | -4.93
18 | O=C(NCC1(N2CCCCC2)CCCCC1)c1ccc(Cl)s1 | -16.2
19 | N#CC1(Nc2ccccc2)CCN(Cc2ccccc2)CC1 | -11.5
20 | O=C(NCC1(N2CCOCC2)CCCCC1)c1cc2ccccc2o1 | -1.46
21 | O=C(NCC1(N2CCCCC2)CCCCC1)c1ccc(Cl)nc1 | -2.19
22 | Cc1cccc(NC2(C#N)CCN(Cc3ccccc3)CC2)c1 | -5
23 | O=C(NCC1(N2CCCCC2)CCCCC1)c1cccs1 | 0.73

Row | SMILES | DAPI activity (viability loss) [%]
24 | O=C(NCC1(N2CCCCC2)CCCCC1)c1ccc(=O)[nH]c1 | 3.34
25 | COc1ccc(C(=O)NCC2(N3CCCCC3)CCCCC2)c(OC)c1OC | -2.91
26 | CN1CCC(Nc2ccc(Cl)cc2)CC1 | -5.04
27 | CCC(CO)(C(=O)OC1CN2CCC1CC2)c1ccccc1 (stereo not given) | -0.373
28 | COc1cc(OC)cc(C(=O)NCC2(N3CCOCC3)CCCCC2)c1 | -6.71
29 | CC(C)(C)OC(=O)N1CCC(Nc2ccccc2)CC1 | 6.69
30 | CN1CCC(Nc2ccc(F)c(Cl)c2)CC1 | -1.81
31 | CN(C)c1ccc(C(=O)NCC2(N3CCCCC3)CCCCC2)cc1 | 14.9
32 | Cn1c(=O)[nH]cc(N(CCCl)CCCl)c1=O | -0.189
33 | O=C(NCC1(N2CCCCC2)CCCCC1)c1ccco1 | 5.81
34 | Cc1ccccc1NC1(C#N)CCN(Cc2ccccc2)CC1 | 5.99
35 | Cc1ccc(NC2(C#N)CCN(Cc3ccccc3)CC2)cc1 | 5.89
36 | Cc1ccc(C(=O)NCC2(N3CCCCC3)CCCCC2)o1 | 6.79
37 | CC(=O)N(c1ccccc1)C1CCNCC1 | 8.03
38 | Cc1cc(N(CCCl)CCCl)ccc1C=O | 0.849
39 | CCCN1CCC(Nc2cc(OC)cc(OC)c2)CC1 | 1.85
40 | c1ccc(CN2CCC(Nc3ccccc3)CC2)cc1 | 16.8
41 | N#Cc1ccc(C(=O)NCC2(N3CCCCC3)CCCCC2)cc1 | -0.722
42 | N/C(=N\O)c1c(N)no[n+]1[O-] | 1.83
43 | COc1ccc(C(=O)NCC2(N3CCOCC3)CCCCC2)cc1OC | 4.05
44 | O=C(NCC1(N2CCOCC2)CCCCC1)c1cc(Br)ccc1Cl | 3.56
45 | COc1cc(C(=O)NCC2(N3CCOCC3)CCCCC2)cc(OC)c1C | 5.34
